Data on 34 molecules can be found in patent US20240358735A1, “THERAPEUTIC COMPOSITIONS AND RELATED METHODS” (BOYCE THOMPSON INSTITUTE FOR PLANT RESEARCH, INC., priority 2021, published 2024).

The first data set has as its system Cel-cest-1.2 mutants. Briefly: Comparative metabolomics (HPLC-HRMS) of Cel-cest-1.2 mutants versus wildtype C. elegans (N2). To be noted: abundance of the metabolite in Cel-cest-1.2 mutants compared to C. elegans wildtype (N2).
On to `C/C=C(\C)C(=O)O[C@@H]1[C@@H](CP(=O)(O)O)[C@H](O)[C@@H](CO)O[C@H]1n1ccc2ccccc21` [iglu#801], for which the “Cel-cest-1.2 fold over WT (N2), average of 4 repeats” value (“Cel-cest-1.2 fold over WT (N2)” below) is 0.0007176. For the molecule `NCCc1ccc(O[C@@H]2O[C@H](COC(=O)c3ccccc3)[C@@H](O)[C@H](OP(=O)(O)O)[C@H]2OC(=O)c2ccccc2)cc1` [tyglu#32], the “Cel-cest-1.2 fold over WT (N2)” value turned out to be 0.007546. The same measure, in the same setting: the value for `Nc1ccccc1C(=O)O[C@@H]1O[C@H](COC(=O)c2ccccc2)[C@@H](O)[C@H](OP(=O)(O)O)[C@H]1OC(=O)c1cccnc1` [angl#28] was 0.0009419; that for `NCCc1ccc(O[C@@H]2O[C@H](CO)[C@@H](O)[C@H](OP(=O)(O)O)[C@H]2OC(=O)c2ccc[nH]2)cc1` [tyglu#181] was 0.001755; that for `NCCc1ccc(O[C@@H]2O[C@H](COC(=O)c3ccccc3N)[C@@H](O)[C@H](OP(=O)(O)O)[C@H]2OC(=O)c2ccc(O)cc2)cc1` [tyglu#36] was 0.001657. With `O=C(/C=C/c1cnc[nH]1)OC[C@H]1O[C@@H](n2ccc3ccccc32)[C@H](OC(=O)c2ccccc2)[C@@H](OP(=O)(O)O)[C@@H]1O` [iglu#69], the “Cel-cest-1.2 fold over WT (N2)” value amounted to 0.01464.

In the case of `O=C(OC[C@H]1O[C@@H](n2ccc3ccccc32)[C@H](OC(=O)c2ccc[nH]2)[C@@H](OP(=O)(O)O)[C@@H]1O)c1ccccc1` [iglu#37], the “Cel-cest-1.2 fold over WT (N2)” value was 0.0001169.

In the case of `O=C(C[C@@H]1O[C@H](COC(=O)c2cccnc2)[C@@H](O)[C@H](OP(=O)(O)O)[C@H]1OC(=O)c1cccnc1)c1ccccc1` [bzglu#6], the “Cel-cest-1.2 fold over WT (N2)” value was 0.01305. Still for that read-out and setting: to `O=C(OC[C@H]1O[C@@H](n2ccc3ccccc32)[C@H](OC(=O)c2ccc[nH]2)[C@@H](OP(=O)(O)O)[C@@H]1O)c1ccc[nH]1` [iglu#27] belongs 0.000146; to `CC(CCCCC(=O)OC1C(Oc2ccc(CCN)cc2)OC(COC(=O)c2ccccc2N)C(O)C1OP(=O)(O)O)OC1OC(C)C(O)CC1O` (stereo not shown) [tyglas#1], 0.0008411.

In the case of `C/C=C(\C)C(=O)OC[C@H]1O[C@@H](n2ccc3ccccc32)[C@H](OC(=O)c2cccnc2)[C@@H](OP(=O)(O)O)[C@@H]1O` [iglu#30], the “Cel-cest-1.2 fold over WT (N2)” value came to 0.0002837. For the molecule `O=C(O[C@@H]1[C@@H](OP(=O)(O)O)[C@H](O)[C@@H](CO)O[C@H]1n1ccc2ccccc21)c1ccccc1` [iglu#121, (2R,3R,4S,5R,6R)-5-hydroxy-6-(hydroxymethyl)-2-(1H-indol-1-yl)-4-(phosphonooxy)tetrahydro-2H-pyran-3-yl benzoate], the “Cel-cest-1.2 fold over WT (N2)” value is 0.0006277. As for `C/C=C(\C)C(=O)OCC1OC(OC(=O)c2cccnc2)C(OC(=O)c2cccnc2)C(OP(=O)(O)O)C1O` (stereo not shown) [nglu#6], the “Cel-cest-1.2 fold over WT (N2)” value is reported as 0.0138. Regarding `NCC(O)c1ccc(O[C@@H]2O[C@H](COC(=O)c3ccc[nH]3)[C@@H](O)[C@H](OP(=O)(O)O)[C@H]2OC(=O)c2ccccc2)cc1` (stereo partly shown) [oglu#8], the “Cel-cest-1.2 fold over WT (N2)” value is reported as 0.01745. Still for that read-out and setting: to `CC(C)CC(=O)OC1C(OC(=O)c2ccccc2)OC(COC(=O)c2cccnc2)C(O)C1OP(=O)(O)O` (stereo not shown) [bzglu#4] belongs 0.003387; to `Nc1ccccc1C(=O)O[C@@H]1O[C@H](CO)[C@@H](O)[C@H](OP(=O)(O)O)[C@H]1OC(=O)c1cccnc1` [angl#101], 0.01275; to `NCCc1ccc(O[C@@H]2O[C@H](COC(=O)/C=C/c3c[nH]cn3)[C@@H](O)[C@H](OP(=O)(O)O)[C@H]2OC(=O)c2ccccc2N)cc1` [tyglu#38], 0.001958. Same read-out and setting: the value for `O=C(OCC1OC(OC(=O)c2ccccc2)C(OC(=O)c2ccc[nH]2)C(OP(=O)(O)O)C1O)c1cccnc1` (stereo not shown) [bzglu#13] was 0.003747; that for `NCC(O)c1ccc(C[C@@H]2O[C@H](COC(=O)c3ccc(O)cc3)[C@@H](O)[C@H](OP(=O)(O)O)[C@H]2OC(=O)c2ccccc2N)cc1` (stereo partly shown) [oglu#17] was 0.001505; that for `NCC(O)c1ccc(OC2OC(COC(=O)c3ccc[nH]3)C(O)C(OP(=O)(O)O)C2OC(=O)c2ccc[nH]2)cc1` (stereo not shown) [oglu#26] was 0.01264.

For the molecule `C/C=C(\C)C(=O)OC[C@H]1O[C@@H](OC(=O)c2ccccc2N)[C@H](OC(=O)/C(C)=C/C)[C@@H](OP(=O)(O)O)[C@@H]1O` [angl#26], the “Cel-cest-1.2 fold over WT (N2)” value came to 0.01182. Take `NCCc1ccc(OC2OC(COC(=O)c3ccccc3N)C(O)C(OP(=O)(O)O)C2OC(=O)C(N)Cc2ccccc2)cc1` (stereo not shown) [tyglu#42]: the “Cel-cest-1.2 fold over WT (N2)” value is on record as 0.004349. Same read-out and setting: to `CCCC(=O)OC[C@H]1O[C@@H](n2ccc3ccccc32)[C@H](OC(=O)c2cccnc2)[C@@H](OP(=O)(O)O)[C@@H]1O` [iglu#92] belongs 0.008002; to `NCCc1ccc(O[C@@H]2O[C@H](COC(=O)c3ccc[nH]3)[C@@H](O)[C@H](OP(=O)(O)O)[C@H]2OC(=O)c2cccnc2)cc1` [tyglu#30], 0.003195. Still for that read-out and setting: to `Nc1ccccc1C(=O)O[C@@H]1O[C@H](COC(=O)c2ccccc2)[C@@H](O)[C@H](OP(=O)(O)O)[C@H]1OC(=O)c1cccnc1` [angl#29] belongs 0.001518; to `C/C=C(\C)C(=O)OCC1OC(OC(=O)c2cccnc2)C(OC(=O)c2cccnc2)C(OP(=O)(O)O)C1O` (stereo not shown) [nglu#5], 0.003987; to `C/C=C(\C)C(=O)O[C@H]1[C@H](OC(=O)c2ccccc2N)O[C@H](CO)[C@@H](O)[C@@H]1OP(=O)(O)O` [angl#601], 0.009854. The same measure, in the same setting: to `O=C(OCC1OC(OC(=O)c2ccccc2)C(OC(=O)c2ccc[nH]2)C(OP(=O)(O)O)C1O)c1cccnc1` (stereo not shown) [bzglu#12] belongs 0.007016; to `C[C@H](CC/C=C/C(=O)OC[C@H]1O[C@@H](Oc2ccc(CCN)cc2)[C@H](OC(=O)c2ccccc2N)[C@@H](OP(=O)(O)O)[C@@H]1O)O[C@@H]1O[C@@H](C)[C@H](O)C[C@H]1O` [tyglas#7], 0.0007089; to `Nc1ccccc1C(=O)C[C@@H]1O[C@H](COC(=O)c2ccccc2)[C@@H](O)[C@H](OP(=O)(O)O)[C@H]1OC(=O)c1ccccc1` [angl#70], 0.0005523. `CCCCCC(=O)CC(=O)OC[C@H]1O[C@@H](Cc2ccc(C(O)CN)cc2)[C@H](OC(=O)c2ccccc2N)[C@@H](OP(=O)(O)O)[C@@H]1O` (stereo partly shown) [oglu#22]: the “Cel-cest-1.2 fold over WT (N2)” value came to 0.0006312. Same read-out and setting: to `Nc1ccccc1C(=O)C[C@@H]1O[C@H](COC(=O)c2ccc[nH]2)[C@@H](O)[C@H](OP(=O)(O)O)[C@H]1OC(=O)c1ccccc1N` [angl#52] belongs 0.006179; to `O=C(OC[C@H]1O[C@@H](n2ccc3cc(O)ccc32)[C@H](OC(=O)c2ccccc2)[C@@H](OP(=O)(O)O)[C@@H]1O)c1cccnc1` [higlu#3], 0.001182.

Still in this data set, the particulars now being: relative to wildtype C. elegans.
In the case of `Nc1ccccc1C(=O)OC[C@H]1O[C@@H](n2ccc3ccccc32)[C@H](O)[C@@H](OP(=O)(O)O)[C@@H]1O` [iglu #4], the “production in the Cel-cest-1.2 mutant (in words)” value is recorded as “not affected”.
